Assay results published in the M2OR odorant receptor database.
The list shows a part of the results, in another mix than the full data. Calls are pooled over several reports, among them a noisy single-well screen. Some of the results follow.

Legend:
Details in all cases: stereoisomer not certain
[1] = tested on: T1, OR1L1
T1 sequence (whole entry): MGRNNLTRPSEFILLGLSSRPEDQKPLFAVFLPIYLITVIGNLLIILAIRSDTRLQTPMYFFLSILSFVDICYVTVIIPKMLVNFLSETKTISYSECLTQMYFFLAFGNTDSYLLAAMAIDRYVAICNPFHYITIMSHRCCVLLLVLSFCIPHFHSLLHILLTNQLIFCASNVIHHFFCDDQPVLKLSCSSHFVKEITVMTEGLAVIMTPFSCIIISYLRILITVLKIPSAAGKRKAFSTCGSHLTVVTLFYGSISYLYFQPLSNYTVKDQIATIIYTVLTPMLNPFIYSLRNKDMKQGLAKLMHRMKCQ
Outline: (§1)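 Values were gathered from published papers (main text and supplementary material), with extra details requested from the original authors when needed, and checked for typos and inconsistencies. Each receptor–molecule pair is called responsive (active) if the original authors judged the measured signal statistically different from baseline, and non-responsive (inactive) otherwise. Assay methods varied by source, often transient mammalian cell-line luciferase assays. Recorded details include cell line, G-protein, co-transfected protein and tags.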

[2] = biological target: T2, OR1L3 (Homo sapiens) (UniProt Q8NH93)
T2 sequence (whole entry): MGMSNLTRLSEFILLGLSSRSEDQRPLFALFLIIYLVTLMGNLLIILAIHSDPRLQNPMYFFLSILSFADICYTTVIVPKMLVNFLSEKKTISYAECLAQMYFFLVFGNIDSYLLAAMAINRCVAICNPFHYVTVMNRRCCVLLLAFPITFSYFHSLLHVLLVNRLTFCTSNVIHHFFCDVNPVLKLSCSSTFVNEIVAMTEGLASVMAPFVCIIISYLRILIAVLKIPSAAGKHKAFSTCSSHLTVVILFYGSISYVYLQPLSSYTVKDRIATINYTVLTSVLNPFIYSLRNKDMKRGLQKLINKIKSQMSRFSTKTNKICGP
Outline: as §1

[3] = tested on: T3, OR1L4
T3 sequence (whole entry): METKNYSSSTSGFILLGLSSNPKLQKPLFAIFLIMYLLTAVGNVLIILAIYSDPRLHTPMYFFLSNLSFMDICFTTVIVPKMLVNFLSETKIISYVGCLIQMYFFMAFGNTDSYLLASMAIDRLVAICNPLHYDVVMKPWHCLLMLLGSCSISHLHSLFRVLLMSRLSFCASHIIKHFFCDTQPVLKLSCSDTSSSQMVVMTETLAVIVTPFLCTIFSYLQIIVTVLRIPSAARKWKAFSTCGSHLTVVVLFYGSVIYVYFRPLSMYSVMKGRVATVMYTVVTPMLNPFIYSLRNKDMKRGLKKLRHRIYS
Outline: as §1

[4] = tested on: T4, OR1L6
T4 sequence (whole entry): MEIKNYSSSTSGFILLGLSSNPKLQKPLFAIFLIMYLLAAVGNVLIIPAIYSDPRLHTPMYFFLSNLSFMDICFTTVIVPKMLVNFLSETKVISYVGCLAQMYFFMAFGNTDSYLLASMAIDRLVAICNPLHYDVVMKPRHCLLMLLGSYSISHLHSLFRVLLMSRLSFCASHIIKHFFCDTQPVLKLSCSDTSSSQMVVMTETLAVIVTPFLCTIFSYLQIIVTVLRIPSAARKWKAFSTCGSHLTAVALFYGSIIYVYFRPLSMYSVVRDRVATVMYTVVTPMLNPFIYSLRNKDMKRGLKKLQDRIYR
Outline: as §1

[5] = biological target: T5, OR1L8 (Homo sapiens) (UniProt Q8NGR8)
T5 sequence (whole entry): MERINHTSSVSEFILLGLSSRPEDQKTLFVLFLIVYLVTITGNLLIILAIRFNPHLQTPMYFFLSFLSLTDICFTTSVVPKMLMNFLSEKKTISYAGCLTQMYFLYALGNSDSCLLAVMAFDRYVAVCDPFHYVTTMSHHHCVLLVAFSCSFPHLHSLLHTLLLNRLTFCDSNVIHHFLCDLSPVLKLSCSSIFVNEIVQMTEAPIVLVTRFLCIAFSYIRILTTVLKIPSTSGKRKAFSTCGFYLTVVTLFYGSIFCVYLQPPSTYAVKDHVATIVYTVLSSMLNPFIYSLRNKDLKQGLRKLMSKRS
Outline: as §1

[6] = tested on: T6, OR1M1
T6 sequence (whole entry): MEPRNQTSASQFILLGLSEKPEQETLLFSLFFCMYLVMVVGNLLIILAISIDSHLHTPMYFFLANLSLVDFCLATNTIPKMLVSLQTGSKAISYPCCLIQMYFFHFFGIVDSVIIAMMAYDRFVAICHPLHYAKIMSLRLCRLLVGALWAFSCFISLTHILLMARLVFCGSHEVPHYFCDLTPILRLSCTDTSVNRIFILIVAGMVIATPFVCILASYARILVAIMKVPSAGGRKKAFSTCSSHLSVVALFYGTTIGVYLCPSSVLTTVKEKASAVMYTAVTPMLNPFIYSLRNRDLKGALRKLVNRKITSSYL
Outline: as §1

[7] = biological target: T7, OR1N1 (Homo sapiens) (UniProt Q8NGS0)
T7 sequence (whole entry): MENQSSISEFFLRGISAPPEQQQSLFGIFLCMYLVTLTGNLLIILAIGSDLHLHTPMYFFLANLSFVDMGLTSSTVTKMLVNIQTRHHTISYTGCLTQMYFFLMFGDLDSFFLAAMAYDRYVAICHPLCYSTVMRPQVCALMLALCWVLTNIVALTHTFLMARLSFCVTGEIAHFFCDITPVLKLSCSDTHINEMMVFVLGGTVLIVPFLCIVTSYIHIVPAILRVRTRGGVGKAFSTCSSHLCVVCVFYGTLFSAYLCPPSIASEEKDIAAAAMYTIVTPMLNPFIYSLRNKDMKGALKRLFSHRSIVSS
Outline: as §1

[8] = biological target: T8, OR1N2 (Homo sapiens) (UniProt Q8NGR9)
T8 sequence (whole entry): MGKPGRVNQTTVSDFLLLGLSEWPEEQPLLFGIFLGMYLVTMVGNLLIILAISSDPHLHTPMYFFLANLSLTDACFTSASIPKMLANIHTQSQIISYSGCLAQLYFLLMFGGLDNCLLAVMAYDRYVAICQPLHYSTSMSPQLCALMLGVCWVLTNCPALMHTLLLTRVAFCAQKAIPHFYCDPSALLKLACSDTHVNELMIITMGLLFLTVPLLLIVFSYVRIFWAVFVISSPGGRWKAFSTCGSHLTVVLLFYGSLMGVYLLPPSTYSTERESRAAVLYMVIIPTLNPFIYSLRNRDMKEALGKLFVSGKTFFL
Outline: as §1

[9] = tested on: T9, OR1N2
T9 sequence (whole entry): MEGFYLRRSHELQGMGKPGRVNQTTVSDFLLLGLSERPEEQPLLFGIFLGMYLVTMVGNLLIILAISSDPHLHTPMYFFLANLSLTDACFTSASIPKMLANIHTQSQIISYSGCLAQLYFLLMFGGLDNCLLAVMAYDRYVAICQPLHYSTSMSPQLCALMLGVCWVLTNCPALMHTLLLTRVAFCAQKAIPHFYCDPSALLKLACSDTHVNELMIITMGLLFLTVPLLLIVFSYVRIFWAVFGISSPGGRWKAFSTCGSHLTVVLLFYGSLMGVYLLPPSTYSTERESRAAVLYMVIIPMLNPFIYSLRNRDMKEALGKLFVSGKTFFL
Outline: as §1

[10] = tested on: T10, OR1Q1
T10 sequence (whole entry): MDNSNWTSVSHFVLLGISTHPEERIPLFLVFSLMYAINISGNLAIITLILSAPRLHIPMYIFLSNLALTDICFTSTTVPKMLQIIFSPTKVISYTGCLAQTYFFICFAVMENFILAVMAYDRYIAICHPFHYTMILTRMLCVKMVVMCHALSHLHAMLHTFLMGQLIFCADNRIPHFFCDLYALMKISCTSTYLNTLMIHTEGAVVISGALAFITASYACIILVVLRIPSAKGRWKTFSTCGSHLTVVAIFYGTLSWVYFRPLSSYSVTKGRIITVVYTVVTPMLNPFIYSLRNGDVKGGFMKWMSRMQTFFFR
Outline: as §1

[11] = tested on: T11, OR1S1
T11 sequence (whole entry): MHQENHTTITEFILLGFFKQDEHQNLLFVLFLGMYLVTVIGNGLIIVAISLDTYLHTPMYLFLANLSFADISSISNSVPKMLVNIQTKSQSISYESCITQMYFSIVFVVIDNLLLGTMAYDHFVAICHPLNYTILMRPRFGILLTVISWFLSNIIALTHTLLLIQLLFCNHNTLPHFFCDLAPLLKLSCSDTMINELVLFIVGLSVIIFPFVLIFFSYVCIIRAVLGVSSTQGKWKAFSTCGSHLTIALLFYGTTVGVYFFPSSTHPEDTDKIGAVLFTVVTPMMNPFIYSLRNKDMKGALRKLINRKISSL
Outline: as §1

[12] = tested on: T12, OR1S2
T12 sequence (whole entry): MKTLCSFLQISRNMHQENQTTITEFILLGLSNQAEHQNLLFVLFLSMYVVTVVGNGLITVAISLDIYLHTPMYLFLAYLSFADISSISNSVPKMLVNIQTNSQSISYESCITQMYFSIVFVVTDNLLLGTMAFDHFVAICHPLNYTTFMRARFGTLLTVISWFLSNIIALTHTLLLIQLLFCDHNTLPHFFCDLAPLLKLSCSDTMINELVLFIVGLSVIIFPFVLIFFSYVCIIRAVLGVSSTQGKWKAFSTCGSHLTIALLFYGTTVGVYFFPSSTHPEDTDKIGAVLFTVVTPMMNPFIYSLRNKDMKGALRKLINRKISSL
Outline: as §1

[13] = biological target: T13, OR2A12 (Homo sapiens) (UniProt Q8NGT7)
T13 sequence (whole entry): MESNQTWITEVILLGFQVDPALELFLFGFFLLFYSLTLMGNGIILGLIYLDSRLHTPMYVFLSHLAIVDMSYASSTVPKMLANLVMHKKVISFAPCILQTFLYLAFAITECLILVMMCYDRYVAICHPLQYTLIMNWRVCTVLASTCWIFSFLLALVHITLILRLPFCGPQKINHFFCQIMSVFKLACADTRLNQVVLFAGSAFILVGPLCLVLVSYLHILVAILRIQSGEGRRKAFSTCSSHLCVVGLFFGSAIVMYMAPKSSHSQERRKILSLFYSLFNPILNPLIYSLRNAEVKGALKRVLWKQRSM
Outline: as §1

[14] = biological target: T14, OR2A1 (Homo sapiens) (UniProt Q8NGT9)
T14 sequence (whole entry): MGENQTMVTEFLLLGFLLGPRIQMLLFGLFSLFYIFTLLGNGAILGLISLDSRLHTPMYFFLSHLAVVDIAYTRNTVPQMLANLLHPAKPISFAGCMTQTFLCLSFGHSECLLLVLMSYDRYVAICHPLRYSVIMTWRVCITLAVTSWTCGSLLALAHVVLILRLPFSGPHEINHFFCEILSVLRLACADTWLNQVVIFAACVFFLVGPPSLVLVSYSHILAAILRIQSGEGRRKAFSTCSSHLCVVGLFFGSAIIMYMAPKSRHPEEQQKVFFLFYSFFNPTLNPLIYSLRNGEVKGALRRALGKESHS
Outline: as §1

Structure (SMILES) | odorant receptor agonist call [1] | odorant receptor agonist call [2] | odorant receptor agonist call [3] | odorant receptor agonist call [4] | odorant receptor agonist call [5] | odorant receptor agonist call [6] | odorant receptor agonist call [7] | odorant receptor agonist call [8] | odorant receptor agonist call [9] | odorant receptor agonist call [10] | odorant receptor agonist call [11] | odorant receptor agonist call [12] | odorant receptor agonist call [13] | odorant receptor agonist call [14]
CC=Cc1ccc(O)c(OC)c1 | inactive | inactive | inactive | inactive | inactive | inactive | inactive | active | inactive | inactive | active | active | inactive | 
COc1cc(C=O)ccc1O | inactive |  | inactive | inactive | inactive | inactive | inactive | inactive | inactive | inactive | active | inactive | inactive | inactive
c1cnccn1 | inactive | inactive | inactive | inactive | inactive | inactive | inactive | inactive | inactive | inactive | inactive | inactive | inactive | 
C=C(C)C1CC=C(C)C(=O)C1 (stereo unspecified) |  |  |  |  |  |  |  |  |  |  |  |  |  | inactive
CC(=O)C(C)=O | inactive | inactive | inactive | inactive | inactive | inactive | inactive | inactive | inactive | inactive | inactive | inactive | inactive | 
CC(=O)OCC=C(C)CCC=C(C)C | inactive | inactive | inactive | inactive | inactive | inactive | inactive | inactive | inactive | inactive | inactive | inactive | inactive | 
CCCCCC(C)=O | inactive | inactive | inactive |  | inactive | inactive | inactive | inactive | inactive | inactive |  | inactive | inactive | 
CC(=O)OC1CC2CCC1(C)C2(C)C (stereo unspecified) | inactive | inactive | inactive | inactive | inactive | inactive | inactive | inactive | inactive | inactive | inactive | inactive | inactive | 
C=CCc1ccc(OC(C)=O)c(OC)c1 | inactive | inactive | inactive | inactive | inactive | active | inactive | inactive | inactive | inactive | active | inactive | inactive | 
CCCCCCCCOC(C)=O | inactive | inactive | inactive | inactive | inactive | inactive | inactive | inactive | inactive | inactive | inactive | inactive | inactive | 
C=CCc1ccc(O)c(OC)c1 |  |  |  |  |  |  |  |  |  |  |  |  |  | inactive
CC(C)=CCCC(C)=CC=O | inactive | inactive | inactive | inactive | inactive | inactive | inactive | inactive | inactive | inactive | inactive | inactive | inactive | 
COc1cc(C)ccc1O | inactive | inactive | inactive | inactive | inactive | inactive | inactive | inactive | inactive | inactive | inactive | inactive | inactive | 
C=CCSCC=C | inactive | inactive | inactive | inactive | inactive | inactive | inactive | inactive | inactive | inactive | inactive | inactive | inactive | 

Quoted at random: 2 compounds from above, in no set order.
Structure (SMILES) | odorant receptor agonist call [1] | odorant receptor agonist call [2] | odorant receptor agonist call [3] | odorant receptor agonist call [4] | odorant receptor agonist call [5] | odorant receptor agonist call [6] | odorant receptor agonist call [7] | odorant receptor agonist call [8] | odorant receptor agonist call [9] | odorant receptor agonist call [10] | odorant receptor agonist call [11] | odorant receptor agonist call [12] | odorant receptor agonist call [13] | odorant receptor agonist call [14]
COc1cc(C=O)ccc1O | inactive |  | inactive | inactive | inactive | inactive | inactive | inactive | inactive | inactive | active | inactive | inactive | inactive
COc1cc(C)ccc1O | inactive | inactive | inactive | inactive | inactive | inactive | inactive | inactive | inactive | inactive | inactive | inactive | inactive | 
